In PMC6884552, “Glycogen branching enzyme controls cellular iron homeostasis via Iron Regulatory Protein 1 and mitoNEET” (Nature Communications, 2019):
Results are given in words; binding and its absence hold for the method and conditions named. In cells and extracts the contact can be indirect. A yes stands for co-enrichment or nearness to the bait. Other partners may have been found. For part of these data: No binding means not detected with the bait. For part of these data: Sequences can lack the tags named with a protein.

How the values were obtained:
Test in all cases: affinity purification with mass spectrometry; samples from four fly strains expressing Flag-tagged transgenes IRP1A^C450S, IRP1B^C447S, IRP1A^3R3Q or IRP1B^3R3Q; anti-Flag immunoprecipitation; tissue per sample in Supplementary Table 2
[1] = target: T1, transgenic Flag-tagged Drosophila IRP1A C450S expressed in flies (Drosophila) (UniProt Q9VCV4)
T1 sequence: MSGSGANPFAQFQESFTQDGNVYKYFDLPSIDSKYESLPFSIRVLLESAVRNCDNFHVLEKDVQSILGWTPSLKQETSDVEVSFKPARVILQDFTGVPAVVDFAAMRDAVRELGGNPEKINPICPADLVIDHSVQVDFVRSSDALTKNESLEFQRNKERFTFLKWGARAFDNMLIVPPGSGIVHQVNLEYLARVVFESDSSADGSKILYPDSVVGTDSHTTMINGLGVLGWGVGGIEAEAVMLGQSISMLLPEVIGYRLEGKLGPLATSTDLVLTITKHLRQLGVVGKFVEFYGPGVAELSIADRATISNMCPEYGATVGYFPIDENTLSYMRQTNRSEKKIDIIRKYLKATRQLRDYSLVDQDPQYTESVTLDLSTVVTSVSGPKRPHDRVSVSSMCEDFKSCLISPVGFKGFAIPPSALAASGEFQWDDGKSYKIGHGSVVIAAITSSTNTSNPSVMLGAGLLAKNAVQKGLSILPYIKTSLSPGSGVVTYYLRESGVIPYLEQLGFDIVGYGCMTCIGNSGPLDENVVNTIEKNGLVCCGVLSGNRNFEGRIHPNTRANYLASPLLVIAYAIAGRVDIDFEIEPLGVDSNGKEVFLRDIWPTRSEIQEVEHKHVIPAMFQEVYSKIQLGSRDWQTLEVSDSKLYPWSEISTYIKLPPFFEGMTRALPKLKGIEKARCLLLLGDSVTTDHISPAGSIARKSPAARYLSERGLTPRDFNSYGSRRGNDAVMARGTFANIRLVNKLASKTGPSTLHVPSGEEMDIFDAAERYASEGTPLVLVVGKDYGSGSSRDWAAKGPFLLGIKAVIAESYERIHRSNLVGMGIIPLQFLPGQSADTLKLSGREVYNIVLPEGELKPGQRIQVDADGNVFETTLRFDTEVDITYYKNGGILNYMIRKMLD

[2] = target: transgenic Flag-tagged Drosophila IRP1B 3R3Q expressed in flies (Drosophila) (UniProt Q9VGZ3)
[3] = target: T2, transgenic Flag-tagged Drosophila IRP1B C447S expressed in flies (Drosophila) (UniProt Q9VGZ3)
T2 sequence: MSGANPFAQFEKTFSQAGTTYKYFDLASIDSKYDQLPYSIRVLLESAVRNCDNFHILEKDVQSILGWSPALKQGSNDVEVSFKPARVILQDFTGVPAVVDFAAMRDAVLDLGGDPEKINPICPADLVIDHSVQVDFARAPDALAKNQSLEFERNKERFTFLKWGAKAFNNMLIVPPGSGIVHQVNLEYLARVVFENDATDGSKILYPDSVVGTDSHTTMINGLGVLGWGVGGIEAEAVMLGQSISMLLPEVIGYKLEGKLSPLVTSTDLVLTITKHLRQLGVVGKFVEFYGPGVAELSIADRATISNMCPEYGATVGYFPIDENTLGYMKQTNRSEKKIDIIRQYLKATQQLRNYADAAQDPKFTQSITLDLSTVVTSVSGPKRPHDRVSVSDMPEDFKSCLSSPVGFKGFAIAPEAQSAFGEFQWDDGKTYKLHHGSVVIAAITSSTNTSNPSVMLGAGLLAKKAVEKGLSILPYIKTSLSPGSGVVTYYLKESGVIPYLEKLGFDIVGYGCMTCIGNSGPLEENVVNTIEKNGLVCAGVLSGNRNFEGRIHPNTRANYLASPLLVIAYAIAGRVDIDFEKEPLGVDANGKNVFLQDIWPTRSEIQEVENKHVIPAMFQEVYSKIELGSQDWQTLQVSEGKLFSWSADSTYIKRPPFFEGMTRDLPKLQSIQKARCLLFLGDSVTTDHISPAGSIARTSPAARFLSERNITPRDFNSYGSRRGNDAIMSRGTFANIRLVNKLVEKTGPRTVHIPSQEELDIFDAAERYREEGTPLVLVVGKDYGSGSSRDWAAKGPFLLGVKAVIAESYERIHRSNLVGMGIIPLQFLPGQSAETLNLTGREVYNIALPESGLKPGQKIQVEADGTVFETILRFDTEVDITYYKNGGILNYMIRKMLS

binding [1]: binds
binding [2]: no binding
binding [3]: no binding
B1: HA-tagged Drosophila Cisd2 (natural protein, UniProt Q9VAM6 1-133, looked up)
chain: MEPISHLVKSSLPNYLSSLPVPDSIGGWFKLSFKDWLALIPPTVVVAGLGYTAYLAYCPAARASCAAKNSGRCNNHIRKNEPKVVDMIDVEDIAEKAAFCRCWKTKNWPYCDGSHGEHNKQTGDNVGPIVIKK
notes: Drosophila Cisd2, cDNA RE49709; also called mitoNEET; Cisd2/mitoNEET; source: S2 cells, transfected, in lysate
